For 39 compounds, AC50 results are on record in PubChem BioAssay AID445 (National Center for Advancing Translational Sciences (NCATS), 2006).

The structures appear in SMILES notation. This is one part of the list. Further columns of the screen follow, without active or inactive calls. Compounds called inactive in the main read-out are mostly missing here. The note in brackets gives the kind of curve behind each potency; many fits are weak.

The experiment is described as follows: IkB Signaling. The following applies: ABC-DLBCL IkBa-CBG/CBR dual luciferase ratio (green luciferase fused to IkBa over red control in OCI-Ly3 lymphoma cells), 4 h. The method, boiled down: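 Luminescence ratio of IκBα-fused green versus native red beetle luciferase in OCI-Ly3 cells, 4 h post-doxycycline with compound; red signal alone, scaled from basal (0%) to zero light (-100%), flagged nonspecific or cytotoxic effects.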
Setting [1] is: measured here: control luc red channel unless noted.

Take `Cc1c(Cl)ccc2sc(N3CCN(C(=O)CS(=O)(=O)c4ccccc4)CC3)nc12`: the AC50 under setting [1] is 31.6 µM [falling, partial curve]. The same measure, in the same setting: the result for `CCCN1CCN(CCCNC(=O)c2c(C)nn(-c3ccc(F)cc3)c2-n2cccc2)CC1` reads 12.6 µM [falling, partial curve]; that for `CCOc1ccc(CNC(=O)Cn2c(=O)c3cccn3c3ccccc32)cc1`, 15.8 µM [falling, partial curve]; that for `Cc1nnc(N2CCCC(C(=O)NCCc3ccccc3)C2)c2nn(-c3ccccc3)c(C)c12` (stereo not given), 25.1 µM [falling, single point]. Still for that read-out and setting: then `Cc1ccn2cc(-c3ccc(C)c(NS(=O)(=O)c4ccc(Cl)cc4)c3)nc2c1`, with 20 µM [falling, partial curve].

Take `Cc1cc(C)c(NC(=O)Cn2c(=O)n(Cc3ccc(C(=O)NCc4ccco4)cc3)c(=O)c3sccc32)c(C)c1`: the AC50 (measured here: IkB-luc green channel) was 15.8 µM [rising, partial curve] and the AC50 (measured here: control luc red channel) is 39.8 µM [rising, single point]. Take `COC(=O)c1cc2oc3ccccc3c2n1CC(=O)Nc1ccc(C)cc1C`: the AC50 under setting [1] is 2 µM [rising, full curve]. The same measure, in the same setting: the result for `CN(C)CCNC(=O)c1ccc2c(c1)N(Cc1c(F)cccc1Cl)C(=O)c1ccccc1S2` reads 10 µM [falling, partial curve].

As to `CCOC(=O)Cn1c(=O)oc2cc(S(=O)(=O)N3CCN(c4cc(C)ccc4C)CC3)ccc21`, the AC50 under setting [1] was 12.6 µM [falling, partial curve]. As to `CCOC(=O)c1ccc(NC(=O)CSc2cn(CC(=O)N3CCCC3)c3ccccc23)cc1`, the half-maximal activity concentration (AC50) under setting [1] was 25.1 µM [falling, single point].

Regarding `COC(=O)c1ccc2c(c1)N(CC(=O)Nc1ccc(OC)c(Cl)c1)C(=O)c1ccccc1S2`, the AC50 under setting [1] was 3.16 µM [falling, full curve].

As to `Cc1ccc(-n2nc3c(N4CCCC(C(=O)NCc5ccc(Cl)cc5)C4)nnc(C)c3c2C)cc1` (stereo not given), the AC50 under setting [1] is 25.1 µM [falling, partial curve].

As for `O=C(CCS(=O)(=O)c1nc(-c2cccs2)cc(C(F)(F)F)n1)Nc1cc(Br)ccc1O`, the AC50 under setting [1] is 3.16 µM [falling, full curve]. Consider `O=C(CSc1nnc(-c2ccc(Br)cc2)o1)Nc1cccc2ccccc12`, for which, under setting [1], the AC50 was 0.0794 µM [falling, full curve]. Still for that read-out and setting: the result for `Brc1ccccc1Cn1c(-c2cncs2)nc2ccccc21` reads 25.1 µM [falling, single point]; that for `N#Cc1nc(COc2cccc(Cl)c2)oc1NCCc1ccccc1`, 31.6 µM [falling, single point]. The same measure, in the same setting: then `CC(C)c1ccc(NC(=O)CSc2nc(=O)n(Cc3ccccn3)c3c2CCC3)cc1`, with 39.8 µM [falling, single point]; and `CCOc1ccccc1C(=O)N(Cc1cc(OC)c(OC)c(OC)c1)c1ccccn1`, with 39.8 µM [falling, single point]; and `Cc1cccc(N2CCN(C(=O)c3ccc(CS(=O)(=O)c4ccccc4C)o3)CC2C)c1` (stereo not given), with 20 µM [falling, partial curve]. Same read-out and setting: the result for `Cc1ccc(Nc2sc(C(=O)c3ccccc3)c(N)c2C(=O)Nc2ccc(Cl)cc2)cc1` reads 0.398 µM [falling, partial curve]. `COc1ccc(-c2cn3nc(N4CCCC(C(=O)Nc5cccc(OC)c5)C4)sc3n2)cc1` (stereo not given): the concentration at half-maximal activity (AC50) under setting [1] is 10 µM [falling, partial curve].

Turning to `CCOCCCNC(=O)c1cc(Sc2cccc(Cl)c2)nc2ccccc12`, the AC50 under setting [1] was 39.8 µM [falling, single point].

Consider `COc1cccc(C(=O)N2c3ccc(C)cc3C(C)(c3ccccc3)CC2(C)C)c1` (stereo not given), for which, under setting [1], the AC50 is 7.94 µM [falling, partial curve]. Regarding `Cc1ccccc1C(=O)Nc1sc2c(c1C(=O)N1CCCCC1)CCC(C)C2` (stereo not given), under setting [1], the AC50 was 25.1 µM [falling, partial curve].

For `O=C(CCN1C(=O)c2ccccc2Sc2ncccc21)Nc1ccc(F)cc1F`, under setting [1], the half-maximal activity concentration (AC50) was 1 µM [rising, full curve]. Same read-out and setting: the result for `O=C(NCc1cccnc1)C(=O)NCC(c1cccnc1)N1CCN(c2ccc(F)cc2)CC1` (stereo not given) reads 10 µM [falling, partial curve]; that for `CCOC(=O)N1CCN(c2cc(NCCC(=O)O)c3c4c(onc24)-c2ccccc2C3=O)CC1`, 10 µM [falling, partial curve]. Still for that read-out and setting: then `CCCCN1C(=O)c2[nH]nc(-c3ccccc3O)c2C1c1ccc(OCc2ccccc2)cc1` (stereo not given), with 39.8 µM [falling, single point]. With `O=C(c1ccco1)N(Cc1cc2ccccc2[nH]c1=O)C1CCCCC1`, the half-maximal activity concentration (AC50) under setting [1] was 2.51 µM [falling, full curve]. Same read-out and setting: the result for `Cc1ccc(S(=O)(=O)N2CCCc3cc(NS(=O)(=O)c4cccc(Cl)c4)ccc32)cc1` reads 31.6 µM [falling, partial curve]; that for `COc1ccccc1NC(=O)CSc1nnc(NC(=O)Nc2ccc(C)cc2)s1`, 15.8 µM [falling, partial curve]; that for `COc1ccc2cc(CN(Cc3ccco3)Cc3nnnn3C3CCCCC3)c(=O)[nH]c2c1`, 25.1 µM [falling, partial curve]. Regarding `Cc1cccc(NC(=O)c2cc3n(n2)C(C(F)(F)F)CC(c2ccc4c(c2)OCO4)N3)c1` (stereo not given), the AC50 under setting [1] was 10 µM [falling, partial curve]. In the case of `Nc1sc2c(c1C(=O)NC1CCS(=O)(=O)C1)CCCC2` (stereo not given), the AC50 under setting [1] was 12.6 µM [falling, partial curve]. With `Cc1ccc(C(=O)c2c(N)c(C(=O)Nc3ccccc3Cl)c3ccccn23)cc1`, the AC50 under setting [1] was 25.1 µM [falling, single point]. Regarding `Cc1ccc(CCNC(=O)c2ccc3c(c2)nc2n3CCCCC2)cc1`, under setting [1], the AC50 is 15.8 µM [falling, single point].

Consider `COc1cccc(NC(=O)c2ccc(CN3CCOCC3)cc2)c1`, for which the AC50 under setting [1] was 31.6 µM [falling, partial curve]. In the case of `Cc1sc2ncn(CC(=O)Nc3cccc(C(F)(F)F)c3)c(=O)c2c1S(=O)(=O)N1CCN(C)CC1`, under setting [1], the AC50 is 1 µM [falling, partial curve]. With `CC1=C(C(=O)Nc2ccc(C)cc2C)C(c2ccc([N+](=O)[O-])cc2)n2ncc(C(=O)Nc3ccc(F)cc3)c2N1` (stereo not given), the AC50 under setting [1] is 10 µM [falling, partial curve].
